According to paper PMC6469404:
Results are given in words; binding and its absence hold for the method and conditions named. Some binding calls cover weakened binding; strength is not graded here.

Legend:
[1] = target: T1, Mid2p iMYTH bait (Mid2p-Cub-TF) (S. cerevisiae) (UniProt P36027); test: two-hybrid; integrated membrane yeast two-hybrid (iMYTH, split ubiquitin) at 30°: Wsc1p or Mid2p bait with C-terminal Cub-(YFP)-LexA-VP16, NubG-X cDNA library preys; library screen and bait dependency test with artificial bait A0286/A0287 as control; growth and blue colour on SD-WAH or SD-WH + …; THY.AP4 or L40 strains
T1 sequence: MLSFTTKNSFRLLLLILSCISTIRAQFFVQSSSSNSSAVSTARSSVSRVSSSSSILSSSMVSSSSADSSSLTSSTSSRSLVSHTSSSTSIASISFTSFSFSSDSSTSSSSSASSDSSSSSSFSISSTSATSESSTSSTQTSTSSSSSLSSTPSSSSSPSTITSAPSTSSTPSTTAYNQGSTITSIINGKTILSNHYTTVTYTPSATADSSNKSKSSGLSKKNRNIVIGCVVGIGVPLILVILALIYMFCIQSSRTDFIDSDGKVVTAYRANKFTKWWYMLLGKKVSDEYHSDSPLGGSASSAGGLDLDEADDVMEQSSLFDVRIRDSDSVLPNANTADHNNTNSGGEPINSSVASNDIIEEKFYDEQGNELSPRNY

[2] = target: T2, Wsc1p iMYTH bait (Wsc1p-Cub-TF) (S. cerevisiae) (UniProt P54867); test: as above
T2 sequence: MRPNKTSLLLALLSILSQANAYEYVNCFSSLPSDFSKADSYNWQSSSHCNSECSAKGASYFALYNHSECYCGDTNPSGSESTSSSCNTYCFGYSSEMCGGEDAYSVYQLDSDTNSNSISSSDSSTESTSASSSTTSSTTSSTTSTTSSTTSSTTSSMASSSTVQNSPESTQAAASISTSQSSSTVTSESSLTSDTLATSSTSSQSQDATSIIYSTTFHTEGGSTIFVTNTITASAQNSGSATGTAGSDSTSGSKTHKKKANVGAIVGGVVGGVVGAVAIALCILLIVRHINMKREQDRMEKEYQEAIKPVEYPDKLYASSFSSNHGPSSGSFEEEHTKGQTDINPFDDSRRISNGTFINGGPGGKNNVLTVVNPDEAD

B1: YPL238C prey (NubG-X library clone) (protein, UniProt Q99401 1-129)
chain: MLELALGVPSLLSASTLSRPALASSFSNASTLLSFVFFFFFFKDSSPKASAMSSVGSFSASASAETLLDFFFFFFNPANKSSPEPFSLPFTAASKSSGITFLVFFFFFSAGSNPNSAAKSEDISCVLII
binding [1]: binds | binding [2]: binds
